This passage reports binding results from publication PMC9922823.

Protein sequences, listed by entry. Tags and fused reporters are not part of them.
UniProt Q01939: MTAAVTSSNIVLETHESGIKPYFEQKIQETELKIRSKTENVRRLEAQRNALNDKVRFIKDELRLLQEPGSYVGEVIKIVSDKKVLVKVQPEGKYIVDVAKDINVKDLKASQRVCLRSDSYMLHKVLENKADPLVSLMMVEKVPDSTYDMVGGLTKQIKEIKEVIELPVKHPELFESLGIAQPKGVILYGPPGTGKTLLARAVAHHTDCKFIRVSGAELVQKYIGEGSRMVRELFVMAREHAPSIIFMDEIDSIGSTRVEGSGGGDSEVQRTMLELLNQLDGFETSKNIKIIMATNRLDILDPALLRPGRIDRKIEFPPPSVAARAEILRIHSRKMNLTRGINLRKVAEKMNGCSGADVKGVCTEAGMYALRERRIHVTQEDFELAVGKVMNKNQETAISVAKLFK

Results are given in words; binding and its absence hold for the method and conditions named. In cells and extracts the contact can be indirect. Here binding means that the protein was enriched with, or labelled near, the bait; the list need not be complete. For some of these results: Sequences can lack the tags named with a protein.

The target in experiment [1] is T1, His6-tagged Rpt3 (S. cerevisiae) (UniProt P33298).
T1 sequence: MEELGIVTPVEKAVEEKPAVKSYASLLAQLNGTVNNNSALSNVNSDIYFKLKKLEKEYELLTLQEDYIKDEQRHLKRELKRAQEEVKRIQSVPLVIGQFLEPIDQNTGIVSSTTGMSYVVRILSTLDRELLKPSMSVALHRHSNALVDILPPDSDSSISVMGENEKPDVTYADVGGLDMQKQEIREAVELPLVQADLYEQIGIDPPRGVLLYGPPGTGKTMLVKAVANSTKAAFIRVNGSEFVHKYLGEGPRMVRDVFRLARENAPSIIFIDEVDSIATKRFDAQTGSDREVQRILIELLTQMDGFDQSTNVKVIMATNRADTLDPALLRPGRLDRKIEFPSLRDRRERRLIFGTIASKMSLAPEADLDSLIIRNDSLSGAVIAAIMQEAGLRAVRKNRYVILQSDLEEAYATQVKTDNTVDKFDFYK
Put plainly: affinity purification with mass spectrometry; His6-Rpt3 as bait from lysate of E. coli coexpressing nine base subunits and four chaperones; TALON resin, 300 mM NaCl, pH 7.0, 0.2% Triton X-100, 150 mM imidazole elution, 1 mM ATP; band cut from 5% native-PAGE for proteomics.

For experiment [2], the target named is Rpt6 harboring a GFP-3xFLAG tag (S. cerevisiae) (UniProt Q01939). In words: affinity purification with mass spectrometry; Rpt6 with GFP-3xFLAG tag as bait from yeast lysate; anti-FLAG M2-agarose, proteasome buffer pH 7.5, 150 mM NaCl, 1 mM ATP, FLAG peptide elution; 5% native-PAGE, proteomics of the complexes.

B1: Rpn2 (protein, UniProt P32565 1-945)
chain: MSLTTAAPLLALLRENQDSVKTYALESINNVVDQLWSEISNELPDIEALYDDDTFSDREMAALIASKVYYNLGEYESAVKYALAAKDRFDIDEKSQFVETIVSKSIEMYVQEASKQYTKDEQFYTKDIIDPKLTSIFERMIEKCLKASELKLALGIALEGYRLDIIESALKSKLDQDSTSENVKIINYLLTLAITTVTNSKFRSSILRKSFDFLMNMPNCDYLTLNKVVVNLNDAGLALQLFKKLKEENDEGLSAQIAFDLVSSASQQLLEILVTELTAQGYDPALLNILSGLPTCDYYNTFLLNNKNIDIGLLNKSKSSLDGKFSLFHTAVSVANGFMHAGTTDNSFIKANLPWLGKAQNWAKFTATASLGVIHKGNLLEGKKVMAPYLPGSRASSRFIKGGSLYGLGLIYAGFGRDTTDYLKNIIVENSGTSGDEDVDVLLHGASLGIGLAAMGSANIEVYEALKEVLYNDSATSGEAAALGMGLCMLGTGKPEAIHDMFTYSQETQHGNITRGLAVGLALINYGRQELADDLITKMLASDESLLRYGGAFTIALAYAGTGNNSAVKRLLHVAVSDSNDDVRRAAVIALGFVLLRDYTTVPRIVQLLSKSHNAHVRCGTAFALGIACAGKGLQSAIDVLDPLTKDPVDFVRQAAMIALSMILIQQTEKLNPQVADINKNFLSVITNKHQEGLAKFGACVAQGIMNAGGRNVTIQLENADTGTLDTKSVVGLVMFSQFWYWFPLAHFLSLSFTPTTVIGIRGSDQAIPKFQMNCYAKEDAFSYPRMYEEASGKEVEKVATAVLSTTARAKARAKKTKKEKGPNEEEKKKEHEEKEKERETNKKGIKETKENDEEFYKNKYSSKPYKVDNMTRILPQQSRYISFIKDDRFVPVRKFKGNNGVVVLRDREPKEPVALIETVRQMKDVNAPLPTPFKVDDNVDFPSA
Consider B1, for which the binding result in experiment [1] and in experiment [2] was “binds” in each case.

B2: Rpn13 (protein, UniProt O13563 1-156)
chain: MSMSSTVIKFRAGVCEYNEDSRLCTPIPVQGEIEIKPNEEEELGFWDFEWRPTEKPVGRELDPISLILIPGETMWVPIKSSKSGRIFALVFSSNERYFFWLQEKNSGNLPLNELSAKDKEIYNKMIGVLNNSSESDEEESNDEKQKAQDVDVSMQD
With B2, the binding entry in experiment [1] and in experiment [2] was “binds” each time.
